Measurements published in PubChem BioAssay AID651768 (National Center for Advancing Translational Sciences (NCATS), 2012).
Among all 360,000 compounds or so, about 1,700 (0.47%) were called active. This list was built around the results that the source calls inconclusive (neither active nor inactive); the mix of calls is not that of the screen. Calls come from the whole dose curve; as a rule, active = well fitted inhibition curve with a large enough effect; inconclusive = small, poorly fitted or top-dose-only effect; inactive = no such curve, though single readings can be large or run the other way. Potencies beside an inconclusive call are fits to weak or partial responses and may not hold up.

Protein sequences, listed by entry. Tags and fused reporters are not part of them.
UniProt Q14191, whole entry, looked up: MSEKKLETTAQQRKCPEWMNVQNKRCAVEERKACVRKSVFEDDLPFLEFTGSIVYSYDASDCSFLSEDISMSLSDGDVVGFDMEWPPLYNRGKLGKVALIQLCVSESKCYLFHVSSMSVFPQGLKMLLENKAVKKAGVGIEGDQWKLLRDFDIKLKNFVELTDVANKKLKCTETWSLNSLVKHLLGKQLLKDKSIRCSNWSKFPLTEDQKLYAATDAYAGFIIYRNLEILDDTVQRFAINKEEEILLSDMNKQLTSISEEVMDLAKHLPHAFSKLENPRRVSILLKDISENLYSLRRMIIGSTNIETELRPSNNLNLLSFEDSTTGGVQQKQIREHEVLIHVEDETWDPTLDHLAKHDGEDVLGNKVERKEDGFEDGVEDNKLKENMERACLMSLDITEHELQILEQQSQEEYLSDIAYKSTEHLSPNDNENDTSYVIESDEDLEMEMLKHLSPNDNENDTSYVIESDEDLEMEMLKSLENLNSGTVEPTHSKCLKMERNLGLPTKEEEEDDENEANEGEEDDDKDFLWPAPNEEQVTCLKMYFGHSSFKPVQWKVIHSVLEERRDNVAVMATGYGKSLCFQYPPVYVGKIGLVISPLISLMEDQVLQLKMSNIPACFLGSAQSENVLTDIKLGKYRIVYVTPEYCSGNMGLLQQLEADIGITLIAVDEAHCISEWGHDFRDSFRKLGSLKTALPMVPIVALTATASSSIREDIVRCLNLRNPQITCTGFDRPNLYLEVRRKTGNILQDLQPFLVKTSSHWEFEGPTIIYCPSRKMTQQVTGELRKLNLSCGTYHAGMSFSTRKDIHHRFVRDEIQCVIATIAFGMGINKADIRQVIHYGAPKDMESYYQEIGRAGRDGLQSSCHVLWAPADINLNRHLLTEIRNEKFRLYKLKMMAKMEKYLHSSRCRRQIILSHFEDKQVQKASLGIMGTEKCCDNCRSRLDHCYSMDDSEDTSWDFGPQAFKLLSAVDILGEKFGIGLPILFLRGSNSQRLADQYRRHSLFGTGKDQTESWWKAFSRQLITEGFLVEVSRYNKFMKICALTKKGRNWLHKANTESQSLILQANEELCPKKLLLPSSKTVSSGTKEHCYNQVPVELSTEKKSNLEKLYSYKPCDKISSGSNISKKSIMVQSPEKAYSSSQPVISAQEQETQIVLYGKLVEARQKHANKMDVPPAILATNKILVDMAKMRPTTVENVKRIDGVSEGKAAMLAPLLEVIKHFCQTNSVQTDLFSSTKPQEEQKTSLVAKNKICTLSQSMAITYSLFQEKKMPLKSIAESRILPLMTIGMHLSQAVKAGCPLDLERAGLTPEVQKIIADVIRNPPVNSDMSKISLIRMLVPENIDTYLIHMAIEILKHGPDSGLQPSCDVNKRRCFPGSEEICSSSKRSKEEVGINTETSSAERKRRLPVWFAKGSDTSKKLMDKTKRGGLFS

Molecular target: Bifunctional 3'-5' exonuclease/ATP-dependent helicase WRN (Homo sapiens) (UniProt Q14191)
Assay: qHTS for Inhibitors of WRN Helicase; note: nearly all actives have a fitted effect of over 55% in size
Settings: WRN helicase unwinding, fluorescent forked duplex, kinetic; activity change, negative = inhibition: at 114 µM (top of the series) unless noted
In short: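 Primary qHTS, 1536-well format. 20 nM WRN + compound, 15 min RT; start with 100 nM forked fluorophore/quencher duplex, 2 mM ATP (final); kinetic read ex 525/em 598 nm.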
% is set by controls: 0 for no effect and ±100 for the full control effect; potency is the fitted concentration of half-maximal effect.

SMILES	Potency	activity change, negative = inhibition
CC(/C=N/n1c(-c2ccc(C)cc2)n[nH]c1=S)=C\c1ccco1	inconclusive: 89.1 µM [inhibitor, partial curve, poor fit]	–
O=C(NCc1ccc(F)cc1)c1c2c(nc3ccccc13)CCC2	inconclusive: 50.1 µM [inhibitor, partial curve]	–
Cc1ccc(-c2cc(C(=O)O)c3cc(Br)ccc3n2)o1	active: 35.5 µM	–
N#Cc1cccc(NC(=O)COC(=O)c2ccc[n+]([O-])c2)c1	inconclusive: 25.1 µM [inhibitor, full curve, poor fit]	–
COC(=O)C1(C(=O)OC)Cc2ccccc2N(S(=O)(=O)c2ccc(C)cc2)C1CC(C)=O (configuration not stated)	–	inactive: 5.77%
COC(=O)c1c(NC(=O)c2ccoc2C)sc2c1CCC2	–	inactive: -16.5%
COc1ccc(N2CC(C(=O)Nc3nc4ccc(OC)cc4s3)CC2=O)cc1 (configuration not stated)	inconclusive: 11.2 µM [inhibitor, partial curve]	–
CCOC(=O)c1c(NC(=O)CSc2nnc(C)c(=O)[nH]2)sc(C)c1-c1ccc(C)cc1	inconclusive: 50.1 µM [inhibitor, partial curve]	–
OCCNc1ncnc2c1ncn2[C@H]1CN(Cc2ccc(Cl)cc2)C[C@@H](CO)O1	–	inactive: -4.39%
CCOc1cc(/C=C2/C(=O)ON=C2C)ccc1OCc1ccccc1	inconclusive: 56.2 µM [inhibitor, partial curve]	–
C(=C\c1ccccc1)/CSc1ccccn1	inconclusive: 39.8 µM [inhibitor, single point]	–
NNC(=O)c1cccc(COCC(F)(F)C(F)F)c1	inconclusive: 11.2 µM [inhibitor, partial curve]	–
COc1ccc(S(=O)(=O)N(C)CC(=O)N2CCCCCC2)cc1	inconclusive: 89.1 µM [inhibitor, single point]	–
Cc1c(OC(C)C(=O)NC(Cc2c[nH]c3ccc(O)cc23)C(=O)O)ccc2c1oc(=O)c1ccccc12 (configuration not stated)	inconclusive: 89.1 µM [inhibitor, partial curve]	–
CCOC(=O)C1=C(C)N=c2s/c(=C\c3ccc(OCC(=O)O)cc3)c(=O)n2C1c1ccc(Cl)cc1 (configuration not stated)	inconclusive: 39.8 µM [inhibitor, single point]	–
Cc1nn(Cc2c(F)cccc2Cl)c(C)c1NC(=O)C1CC1	–	inactive: -3.62%
CC(CCN1CCC(CN2C(=O)C(=O)NC[C@@H]2Cc2ccccc2)CC1)c1ccccc1 (some centres not stated)	–	inactive: -4.95%
COc1cccc(-c2nc(-c3ccc(NC(=O)Cc4ccccc4OC)cc3)no2)c1	inconclusive: 79.4 µM [inhibitor, partial curve]	–
COc1ccc(-c2coc3c(C)c4oc(=O)c(CCC(=O)O)c(C)c4cc23)cc1	inconclusive: 50.1 µM [inhibitor, partial curve]	–
COC(=O)C1=C(Nc2cc(Cl)cc(Cl)c2)CSC1	inconclusive: 3.55 µM [inhibitor, full curve, poor fit]	–
COc1ccccc1/C=N/OCC(=O)NCc1ccc2c(c1)OCO2	inconclusive: 28.2 µM [inhibitor, single point]	–

Given in markdown: part of the list above

| SMILES | Potency | activity change, negative = inhibition |
| --- | --- | --- |
| COC(=O)c1c(NC(=O)c2ccoc2C)sc2c1CCC2 | – | inactive: -16.5% |
| COc1ccc(N2CC(C(=O)Nc3nc4ccc(OC)cc4s3)CC2=O)cc1 (configuration not stated) | inconclusive: 11.2 µM [inhibitor, partial curve] | – |

Next compounds follow.

SMILES	Potency	activity change, negative = inhibition
C#CCOCCOCCOCCNc1nc(N2CCN(C(=O)CCCCCCCCCCNC(=O)[C@H](CO)n3cc(CCCSC)nn3)CC2)nc(N2CCN(C(=O)CCCCCCCCCCNC(=O)[C@H](CCCCN)n3cc(CCO)nn3)CC2)n1	inconclusive: 70.8 µM [inhibitor, single point]	–
Cc1ccc(-c2nc3sc(C#N)c(N)n3c(=O)c2C#N)cc1	inconclusive: 39.8 µM [inhibitor, partial curve]	–
O=C(NNC(=O)c1cc(Cl)ccc1O)c1cccc(S(=O)(=O)N2CCOCC2)c1	inconclusive: 35.5 µM [inhibitor, full curve, poor fit]	–
Cc1cccc2[nH]c(CN(C)C(=O)C3CCC(=O)N(CCc4ccccc4)C3)nc12 (configuration not stated)	inconclusive: 100 µM [inhibitor, single point]	–
CCn1nc(C(=O)OCC(=O)Nc2ncc(Cl)c(C)c2Cl)c2ccccc2c1=O	inconclusive: 39.8 µM [inhibitor, partial curve]	–
O=C(Nc1ccc2nc(-c3ccco3)c(-c3ccco3)nc2c1)N1CCN(c2ccccn2)CC1	active: 17.8 µM	–
COc1ccc(Cc2n[nH]c(=S)n2Cc2ccccc2)cc1Cl	inconclusive: 89.1 µM [inhibitor, single point]	–
O=C(NNc1cccc(Cl)n1)c1ccccc1CC[N+](=O)[O-]	inconclusive: 25.1 µM [inhibitor, single point]	–
COc1ccc(/C=C2/C(=O)N(c3ccccc3)N=C2C)cc1OC	–	inactive: -14.7% [at 57.1 µM]
O=C(NCCCn1ccnc1)c1nn2c(C(F)(F)F)cc(-c3ccc(Br)cc3)nc2c1Cl	inconclusive: 35.5 µM [inhibitor, single point]	–
COc1ccc(NC(=S)Nc2ccc3nsnc3c2)cc1	inconclusive: 39.8 µM [inhibitor, partial curve]	–
Cc1ccccc1C(=O)Nc1cc(S(=O)(=O)N2CCCCC2)ccc1N1CCN(C)CC1	–	inactive: -12%
COc1ccc(CC(=O)Nc2nc3ccccc3[nH]2)cc1	–	inactive: 1.48%
Cc1ccc(NC(=O)c2cccc(C(=O)Nc3ccc(C)cc3C(=O)O)c2)c(C(=O)O)c1	–	inactive: -13.5% [at 11.6 µM]
COc1ccc2nc3c(nc2c1)CCCC3	inconclusive: 89.1 µM [inhibitor, single point]	–
O=C(CSc1nnc(-c2cccc(S(=O)(=O)N3CCCC3)c2)n1-c1ccccc1)Nc1ccc(C(=O)O)cc1	active: 50.1 µM	–
CCOc1cc(/C=C2\SC(=Nc3ccc(CC)cc3)NC2=O)ccc1OCC(=O)O	inconclusive: 50.1 µM [inhibitor, partial curve]	–
Cc1cc(=O)[nH]c(SCC(=O)Nc2ccc(C(=O)O)cc2)n1	–	inactive: -8.19% [at 57.1 µM]
O=C(Nc1ccc(NC(=O)C23CC4CC(CC(C4)C2)C3)cc1)c1cc(F)c(F)cc1Cl	inconclusive: 39.8 µM [inhibitor, single point]	–
O=C(/N=C1\NC(=O)C(F)(C(F)(F)F)S1)NC1CCCCC1 (configuration not stated)	active: 50.1 µM	–
CCn1c(C)nc2cc(S(N)(=O)=O)ccc21	inconclusive: 89.1 µM [inhibitor, single point]	–
